Experimental data: PMC10361663
Results are given in words; binding and its absence hold for the method and conditions named. In cells and extracts the contact can be indirect. Here binding means that the protein was enriched with, or labelled near, the bait; the list need not be complete.

Protein sequences, listed by entry. Tags and fused reporters are not part of them.
UniProt P33176: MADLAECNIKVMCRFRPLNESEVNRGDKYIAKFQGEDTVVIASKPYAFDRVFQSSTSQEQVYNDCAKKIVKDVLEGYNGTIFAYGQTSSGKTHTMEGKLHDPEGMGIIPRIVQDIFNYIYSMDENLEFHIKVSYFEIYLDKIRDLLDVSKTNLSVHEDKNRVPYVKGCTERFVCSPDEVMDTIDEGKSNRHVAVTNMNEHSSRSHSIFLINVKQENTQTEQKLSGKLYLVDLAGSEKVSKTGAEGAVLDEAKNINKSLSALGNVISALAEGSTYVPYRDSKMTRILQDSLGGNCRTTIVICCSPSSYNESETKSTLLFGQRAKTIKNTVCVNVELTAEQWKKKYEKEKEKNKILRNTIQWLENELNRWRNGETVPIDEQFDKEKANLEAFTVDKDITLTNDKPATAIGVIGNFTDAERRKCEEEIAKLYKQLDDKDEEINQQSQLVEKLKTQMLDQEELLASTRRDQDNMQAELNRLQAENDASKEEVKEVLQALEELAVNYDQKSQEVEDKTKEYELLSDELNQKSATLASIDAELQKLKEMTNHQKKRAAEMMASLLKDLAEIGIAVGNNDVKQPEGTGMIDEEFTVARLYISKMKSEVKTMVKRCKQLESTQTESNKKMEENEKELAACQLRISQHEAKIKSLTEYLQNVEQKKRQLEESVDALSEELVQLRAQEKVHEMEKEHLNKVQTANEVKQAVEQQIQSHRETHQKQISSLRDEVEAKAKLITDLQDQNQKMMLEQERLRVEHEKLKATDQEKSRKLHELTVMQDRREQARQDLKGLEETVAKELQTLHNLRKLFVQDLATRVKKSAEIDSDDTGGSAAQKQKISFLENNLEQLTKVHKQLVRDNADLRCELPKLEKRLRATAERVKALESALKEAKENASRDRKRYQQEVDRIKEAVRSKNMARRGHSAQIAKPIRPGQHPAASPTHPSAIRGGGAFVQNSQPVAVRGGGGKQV

Target: T1, HURP (Hepatoma Upregulated Protein) (human (endogenous in HeLa Kyoto)) (UniProt Q15398)
T1 sequence: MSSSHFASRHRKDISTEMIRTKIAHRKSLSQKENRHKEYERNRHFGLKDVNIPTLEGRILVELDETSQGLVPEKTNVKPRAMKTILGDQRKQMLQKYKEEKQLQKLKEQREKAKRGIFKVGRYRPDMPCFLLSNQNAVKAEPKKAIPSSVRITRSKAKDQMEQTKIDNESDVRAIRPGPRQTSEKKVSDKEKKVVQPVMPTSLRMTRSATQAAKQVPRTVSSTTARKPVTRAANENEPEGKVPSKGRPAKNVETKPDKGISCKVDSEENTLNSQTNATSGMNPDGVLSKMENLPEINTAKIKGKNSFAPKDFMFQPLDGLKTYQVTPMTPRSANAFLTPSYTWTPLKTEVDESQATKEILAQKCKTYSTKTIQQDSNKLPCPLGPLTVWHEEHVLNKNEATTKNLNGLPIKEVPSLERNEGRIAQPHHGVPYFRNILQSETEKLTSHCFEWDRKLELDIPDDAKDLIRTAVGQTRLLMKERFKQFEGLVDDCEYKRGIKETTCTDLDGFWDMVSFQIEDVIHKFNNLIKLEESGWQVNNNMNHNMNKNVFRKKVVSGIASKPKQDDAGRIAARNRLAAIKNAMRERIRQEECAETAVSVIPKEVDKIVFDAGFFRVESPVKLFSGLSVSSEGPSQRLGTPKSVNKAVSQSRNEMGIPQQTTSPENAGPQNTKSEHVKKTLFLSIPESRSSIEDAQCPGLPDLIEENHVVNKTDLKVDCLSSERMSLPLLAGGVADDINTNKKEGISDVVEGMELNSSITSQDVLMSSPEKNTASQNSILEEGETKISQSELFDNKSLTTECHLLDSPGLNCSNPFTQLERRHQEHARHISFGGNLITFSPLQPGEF
Assay: affinity purification with mass spectrometry; HeLa Kyoto mitotic extracts immunoprecipitated with an antibody against HURP; isolated complexes analysed by LC-MS/MS

Substance: Kif5B (from UniProt P33176 1-963)
- binding: binds
